Assay results published in PubChem BioAssay AID1347426 (Functional Genomics Laboratory (NCATS/FGL), 2020).
The whole screen tested about 31,000 sequences, of which about 1,400 (4.5%) were called active.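 The calls were made as follows: active = median seed-adjusted z-score above 1 or below -1; inactive = the rest.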 The list shows a part of the results.

Assay: Novel Modifiers of Survival Motor Neuron (SMN) Protein: Gene Identification via Genome-wide siRNA Screen;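 also: luminescence tracks full-length SMN protein made from the SMN2 reporter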
Conditions: HEK293T SMN2-luciferase reporter, siRNA knockdown, 72 h; actives lie on both sides
Outline: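 Steps: spot 1 pmol siRNA, add Lipofectamine RNAiMax in serum-free DMEM, seed HEK293T SMN2–luciferase reporter cells; incubate 72 h at 37 °C; add ONE-Glo; normalize luminescence to control siRNA, log10, MAD. Candidates: |MAD| > 1.0.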

| Sequence | median seed-adjusted z-score |
| --- | --- |
| AGAUUCUUAUUGCAUGACATT against NLGN4Y | inactive: 0.317 |
| GCAUCUAUCAGUUCGAGUATT against EVI5L | inactive: 0.0497 |
| CAACUAUCUCAGGCCUUAATT against TRIM67 | inactive: -0.431 |
| GCCUAUUACAAAUCAACUUTT against ZNF766 | inactive: -0.577 |
| GGCAGACCUUUACAACUCATT against SP1 | inactive: 0.544 |
| GGACAAUGUCAGAACAAGATT against CNOT6 | inactive: 0.146 |
| AGAUUUGCCUGAUGCUCAATT against RGS10 | inactive: 0.304 |
| GGUACCCAAGGCCUGCUUATT against POLR2J2 | inactive: 0.375 |
| GGAUUACAUGGAUCGUCUUTT against MIER1 | inactive: 0.0271 |
| GACUUGAUCUUGAUCAAUUTT against TEK | inactive: -0.347 |
| CAGUCAAAUCUAUCGUUUUTT against NCOA2 | inactive: 0.149 |
| GAAACAAUUCAGAACAUGATT against PSMD11 | inactive: -0.156 |
| CGUAUACUAUUAUCACGUUTT against ATP6V0A1 | inactive: 0.103 |
| GCAUUGAUCGCUAUCUGAATT against GPR87 | inactive: 0.237 |
| CUGCGGACCCAAUACAUGATT against ARID3A | active: -1.11 |
| GACUGGAGUUGAAUGGGAATT against SIAH2 | inactive: 0.156 |
| GCAGGUCUGUGCAAUAGCATT against ABCA9 | inactive: -0.139 |
| GGACAUAGAUCAGAAGCUATT against CDK7 | inactive: -0.524 |
| GGAUCCAUUUUGUUGGACATT against NKX6-1 | inactive: -0.0317 |
| GCAUUAGCCUCAUUGGUCUTT against IPO5 | inactive: -0.299 |
| CCCUGAAAGUGUUAAGUCUTT against ZNF329 | inactive: -0.0877 |
| GCAGAGACCAUGAUCGUUUTT against COPA | inactive: -0.807 |

| Sequence | median seed-adjusted z-score |
| --- | --- |
| GGACAUGUCACACCAUUAUTT against SP6 | inactive: -0.176 |
| GAGAUAACAUCAGUAGAAATT against FGF10 | inactive: 0 |
| CUAUGGACCAGUCAAAUAATT against NDUFB7 | inactive: -0.379 |
| CCGCAGAUGAGAUCCCUAATT against SORBS3 | inactive: 0.106 |
| GGAUGGUUAUAACUACACUTT against S100A11 | inactive: 0.702 |
| AGUCUGUUUUGAGAUCGAATT against CARD8 | inactive: 0.115 |
| GUACUUCAAUAGUAGCAGATT against ASAH1 | inactive: 0.421 |
| CGACAAUUCUUCUAGACAATT against TTC3 | active: -1.17 |
| CUCUUGCUACGGAGGCUACTT against NKX2-6 | inactive: -0.00448 |
| GCUUAAAAUAGAACGUGAATT against SPINT4 | inactive: 0.354 |
| UGCCUUGGUUCAUCCCUAATT against ATP6V0E1 | inactive: -0.0658 |
| CCAAGAGUCUUAAUGCCUUTT against HDAC3 | inactive: 0.579 |
| GAGGAAGUAUAACACCAAATT against RDH13 | inactive: 0.208 |
| GCUUGACUUCAAAACUAAATT against SERPIND1 | inactive: 0.133 |
| GACCGUUUGUGGUAGCAGUTT against ACOT9 | inactive: 0.58 |
| CCAUGAUACUCCACUCCCATT against GUCA2A | inactive: 0.121 |
| GACUUGACCGAGUACCUCATT against UQCRC1 | inactive: -0.284 |
| AGAAUUAUAUGAAACACCUTT against CCL13 | inactive: 0.135 |
| CAGAUUUUCUAUGGACUUATT against ZNF516 | inactive: 0.56 |
| GGUGUAUCAGAUGCUCAAATT against MAPK13 | inactive: -0.491 |
| CCUUCAUUAAUGAGUCAUATT against ZNF426 | inactive: 0.2 |
| GCAUGAACCAGUUAUCACATT against SCYL2 | inactive: -0.0652 |

| Sequence | median seed-adjusted z-score |
| --- | --- |
| CAGAUGAAAUACUACUUCUTT against ARD1A | active: -1.05 |
| GUCUGUUUCUUCGAAAUUATT against VPS35 | inactive: -0.511 |
| GGAGUUCACCAAGUCCUUATT against CHP2 | inactive: 0.364 |
| GAAGAUGGGUAUAUCCUUUTT against LIPM | inactive: -0.00856 |
| GGAUGUAUGAGGCUCAUUUTT against CNTNAP4 | inactive: -0.414 |
| CCAUUUGAAUUACCACGUATT against GRIA3 | inactive: -0.358 |
| GCAGACAAGUCAACCGUGATT against FRK | inactive: -0.14 |
| CCUAAUUACUGCUAUCGUUTT against PPP6C | inactive: -0.0212 |
| CAUUGUUAGUUCAUCAAGATT against RASEF | inactive: 0.299 |
| GGACCAAGAGGAUUGAGUATT against CLSTN2 | inactive: 0 |
| GCUGAUGAAUCCGAAAAUATT against SLC7A14 | inactive: 0.132 |
| CUGCCGGAGUUACAACUCATT against DPF3 | inactive: 0.242 |
| CCUUCUGAAAGAACGCAAATT against ABCA8 | inactive: -0.666 |
| AGAACAGGCGUAUGAAGAATT against HOXD12 | inactive: -0.18 |
| GCCCUAUAAAUGUGGAGAATT against ZSCAN20 | inactive: -0.099 |
| CAGUGAGUAUAGAAACGGATT against NLP | inactive: -0.186 |
| GAACAUAUGGUGCAUGAUATT against ZFY | inactive: -0.128 |
| GGCAGAUAACUGAACGAGATT against HECW2 | inactive: 0.38 |
| UGACAGAGAUUUGACACCATT against PRSS33 | inactive: -0.588 |
| GCAGGAAAAUCGCGAGGGATT against PDLIM2 | inactive: 0.267 |
| CAAACUUCACUAUGCAUUUTT against CHP2 | inactive: 0.364 |
| GGAUAGUCGUGAUGCCCAUTT against HDAC7 | inactive: -0.41 |

| Sequence | median seed-adjusted z-score |
| --- | --- |
| GCCUGUUCUGAAUUGGUGATT against ZCCHC3 | inactive: -0.849 |
| GGAAAUCCUUGGGUUUGAATT against SRRM1 | inactive: -0.861 |
| CCAGUAGCCUAUUACCGAATT against SLITRK2 | inactive: -0.246 |
| CAAUACUAGUUCUCGUUUATT against PDZD8 | inactive: 0.0582 |
| GGCUGACAAUUACAACUAUTT against PKP1 | inactive: -0.99 |
| GCAUGAUGAGCAGAAAGGATT against HR | inactive: 0.751 |
| CGAUUAUCAUGUUGACGGATT against TUBGCP3 | inactive: -0.685 |
| GCAAUGGAGGAAAGAUAUATT against HOOK1 | inactive: 0.202 |
| GGAUGUUUAUCGUCGCAUUTT against TJP1 | inactive: 0.0302 |
| GCUACGCAAUUGAAAAGCATT against UGT2B4 | inactive: 0.0707 |
| GAGACGAUUUAGAAGCUUUTT against CSNK1G3 | inactive: 0 |
| CCCUCAUGGACAUCGCCUATT against PCGF2 | inactive: 0.187 |
| GCAUAGUGAAGGCCCUGAATT against PRDX5 | inactive: -0.0386 |
| GCAUAGAUGGAACCCAUUATT against DPYSL3 | inactive: -0.226 |
| CUCUGUAGAUAAACCCAUATT against HSF2 | inactive: -0.0228 |
| GCAUCGUAAUUCCCUAUGATT against SLC10A2 | inactive: -0.219 |
| GCGUGUCCAUCUUAGACUUTT against ZNF616 | inactive: -0.0874 |
| UGCCUUUAAUAAGCUCCAATT against IL10 | inactive: 0.0967 |
| GGGAUGCAGCAGAUCAGAATT against RAB3D | inactive: 0.221 |
| GUAGCUUGCUACUCCAGAATT against POLR2D | active: -3.79 |
| GGAGCAUUCUCAUUCGAGATT against CSTF3 | inactive: 0.0879 |
| AGACCCAUCUUUUACUGCATT against TRIM56 | inactive: -0.452 |

Part of the list above, with each value named.
GCCUGUUCUGAAUUGGUGATT against ZCCHC3
  median seed-adjusted z-score: inactive: -0.849
GGAAAUCCUUGGGUUUGAATT against SRRM1
  median seed-adjusted z-score: inactive: -0.861
GCAAUGGAGGAAAGAUAUATT against HOOK1
  median seed-adjusted z-score: inactive: 0.202
GCUACGCAAUUGAAAAGCATT against UGT2B4
  median seed-adjusted z-score: inactive: 0.0707

Additional results follow:

| Sequence | median seed-adjusted z-score |
| --- | --- |
| CGUGCGGACAAUAAGCAAATT against MYO1C | inactive: 0.566 |
| GGAUACAUAUUACUUCUGATT against SLCO1C1 | inactive: 0.071 |
| AGGAGAUUCUGAACAGGCUTT against GPR26 | active: -1.33 |
| GGGAUCUUCUGGUACCUGUTT against SLC17A7 | inactive: -0.0794 |
| CAACCAGAAUUGGAGGUAATT against CARD6 | inactive: 0 |
| CAAAAGAGGUUAACCUUGATT against RGS18 | inactive: -0.0369 |
| AAGUUAGUCCUAAAGUGUATT against UCHL1 | inactive: -0.421 |
| CGAUAUCAGCUGAUUAUGATT against TRPM1 | inactive: -0.527 |
| GGAUACACCUUUGAAGUUATT against ADH7 | inactive: -0.388 |
| GAUCUUGCCCUAUCAAGCATT against DBP | inactive: -0.115 |
| GGUCCAACAUGCAAUCCAATT against EDEM3 | inactive: 0.119 |
| CAUACUUUUUGGAUAGACATT against MTX1 | inactive: -0.159 |
| AGAAGACGGUGACGAUGAATT against SYT7 | inactive: -0.762 |
| CCACUAUUUUGAUUCUCUUTT against GPR63 | inactive: -0.0154 |
| GGAUCUUACUGGUGCAAAATT against CD300E | inactive: 0.337 |
| CCAGAUUGUGGACUUCCUATT against MATN4 | inactive: -0.262 |
| CCGAAUGAGUUUGAACAUATT against ZNF48 | inactive: -0.116 |
| GUGCUUUGACUGUCAAGAATT against ZNF333 | inactive: 0.418 |
| AGCACGAACUGUCAUCUUUTT against PGLS | inactive: 0.188 |
